Experimental data as given in PubChem BioAssay AID2685 (National Center for Advancing Translational Sciences (NCATS), 2010).
Screen size: about 320,000 compounds; about 2,100 (0.66%) were called active. The inconclusive results got no clear call from the source; some entries with a clear call stand among them for comparison. The call rests on the fitted dose curve; in most records, active means well fitted inhibition curve with a large enough effect in the signal ratio, with a control signal flat (not every such curve was filed as active); inconclusive means small, poorly fitted or top-dose-only effect, or effect the other way, or a change in a side signal; inactive means flat fitted curve, though single readings scatter; the % refers to the signal ratio. Potencies of inconclusive entries are doubtful fits and often do not repeat.

test: qHTS Assay for Lipid Storage Modulators in Drosophila S3 Cells; settings: BODIPY lipid droplet fluorescence, 18-24 h, cells fed with added oleic acid; lipid storage change, negative = inhibition: at 46.1 µM (top of the series) unless noted
Summary of the method: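 Laser-scanning cytometry quantifies lipid droplet accumulation (500–530 nm total intensity; droplet/cell object ratio) in oleic acid-fed (400 uM added) Drosophila S3 cells treated with a concentration series. 20 uM Triacsin C defined 100% inhibition.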
On the % scale 0 is the no-effect control and ±100 the full control effect; potency means the concentration at half of the fitted maximal effect.

| Structure (SMILES) | Potency | lipid storage change, negative = inhibition |
| --- | --- | --- |
| CCOC(=O)c1ccc(N=c2sc(C(=O)OC)cc(=O)n2Cc2ccco2)cc1 | inconclusive: 18.4 µM [falling, single point] | – |
| CC12CC3CC(C)(C1)CC(C(=O)NNC(=O)c1ccncc1)(C3)C2 | – | inconclusive: -7.83% |
| COc1ccccc1NC(=O)Nc1ccccc1Br | – | inconclusive: -11% |
| O=C(N/C=C/c1ccco1)OCc1ccccc1 | – | inconclusive: 6.26% |
| O=C(O)C1=C[C@@H](c2ccc(C(F)(F)F)cc2)C[C@@H](OCc2ccc(CO)cc2)O1 | – | inconclusive: 20.7% |
| CN(C)CCCN(C(=O)c1ccc(S(=O)(=O)N(C)C2CCCCC2)cc1)c1nc2ccc(F)cc2s1 | – | inconclusive: -43.8% |
| Cc1sccc1/C=N/NC(=O)c1ccco1 | inconclusive: 0.58 µM [falling, single point] | – |
| O=C(CS(=O)(=O)c1cn(Cc2ccc(Cl)cc2)c2ccccc12)N1CCCC1 | inconclusive: 6.51 µM [activator, single point] | – |
| COc1cccc(NC(=O)c2oc3ccccc3c2NC(=O)C2CC2)c1 | inconclusive: 6.51 µM [rising, full curve] | – |
| Cn1c(=O)c(=O)n(C)c2cc(S(=O)(=O)NCCOc3ccccc3Cl)ccc21 | – | inconclusive: -12.2% |
| Cc1cc(-n2c(C)cc(C(=O)CSc3ncnc4ccccc34)c2C)no1 | – | inconclusive: -31.3% |
| COc1ccc(NCC(=O)N/N=C/c2c(C)nn(Cc3ccccc3)c2Cl)cc1 | – | inconclusive: 11.9% |
| COC(=O)CN(C)C(=O)c1ccc2nc(Cc3cccc(Cl)c3)oc2c1 | inconclusive: 9.2 µM [activator, partial curve] | – |
| CCC(CC)C(=O)c1c[nH]c(C(=O)NCc2ccccc2)c1 | – | inconclusive: 2.71% |
| O=C(CSc1ncccc1-c1nc2ccccc2[nH]1)N1CCCCC1 | – | inconclusive: 13.9% |
| CCSS(=O)(=O)c1cccc2cccnc12 | – | inconclusive: -99.4% |
| CC1(C)Cc2nc3sc(C(=O)NCCCO)c(N)c3cc2CS1 | – | inconclusive: 9.75% |
| CCc1ccc(NC(=O)CN2C(=O)CC(C)S(=O)(=O)c3ccccc32)cc1 (stereo not given) | active: 20.6 µM | – |
| COc1cc(/C=C/c2c([N+](=O)[O-])c(=O)n(C)c(=O)n2C)cc(OC)c1OC | inconclusive: 10.3 µM [rising, single point] | – |
| CCOC(=O)CCCSc1nc2sc3c(c2c(=O)[nH]1)CCC3 | – | inconclusive: -5.63% |
| COc1ccc(-c2nc(-c3ccc(Br)o3)no2)cc1OC | – | inconclusive: 29.2% |
| Cc1cccc(NC(=O)c2ccc(F)c(S(=O)(=O)N3CCC4(CC3)OCCO4)c2)c1 | inconclusive: 18.4 µM [falling, single point] | – |
| CC(C)c1onc(C(=O)N2CCOCC2)c1[N+](=O)[O-] | – | inactive |
| Cc1ccc(C(=O)N2CC(C(=O)O)C2)cc1 | – | inconclusive: 0.619% |
| CC(=O)c1cc2c(cc1NC(=O)c1cnc(C)cn1)OCO2 | inconclusive: 0.103 µM [activator, full curve, poor fit] | – |

| Structure (SMILES) | Potency | lipid storage change, negative = inhibition |
| --- | --- | --- |
| CCN(CC)CCNC(=O)c1cc2c(=O)n(C)c3ccccc3c2n1C | – | inconclusive: -10.1% |
| COc1ccc(NC(=O)C(c2ccccc2)N(C)C(=O)c2cnccn2)cc1 (stereo not given) | inconclusive: 6.51 µM [activator, partial curve] | – |
| O=C(O)c1ccc(S(=O)(=O)NCC2CCCCC2)cc1 | inconclusive: 2.31 µM [activator, partial curve, poor fit] | – |
| COc1cc(OC)cc(C(=O)NNC(=O)c2ccc3ccccc3n2)c1 | – | inconclusive |
| Cc1ccc(Cl)cc1N1CCN(S(=O)(=O)c2ccc3[nH]c(=O)ccc3c2)CC1 | inconclusive: 16.4 µM [falling, single point] | – |
| COc1ccc(N(CC(=O)NCc2ccc(Cl)cc2)S(=O)(=O)c2ccccc2[N+](=O)[O-])c(OC)c1 | – | inconclusive: -28.1% |
| Cc1cccc(NC(=O)CN(C)C(=O)C2CCCC2)c1C | – | inconclusive: 17.1% |
| Cc1cccc(C)c1NC(=O)CN(C)C(=O)CCc1nc2sc3c(c2c(=O)[nH]1)CCCC3 | – | inconclusive: 62.5% |
| Cc1noc(C)c1COC(=O)COc1cccc2c1OC(C)(C)C2 | – | inconclusive: -39.3% |
| O=C(CSc1nc2ccccc2s1)Nc1ccc(N2CCOCC2)c(Cl)c1 | inconclusive: 29.1 µM [falling, single point] | – |
| CC(=O)c1c(C)[nH]c(C(=O)NCCc2ccccc2)c1C | – | inconclusive: 11.5% |
| O=C(Nc1ccc(F)cc1)C1CCN(C(=O)NCc2ccccc2)CC1 | – | inconclusive: 147% |
| CC(NC(=O)c1ccc(Cl)cc1Cl)C(c1ccccc1)N1CCOCC1 (stereo not given) | – | inconclusive: -0.0633% |
| CC[C@@]12C(=O)N(c3cccc(Cl)c3)C(=O)N1[C@H](c1cccc(C)c1)[C@@H]1C(=O)N(Cc3ccccc3)C(=O)[C@@H]12 | – | inconclusive: 13.5% |
| Cc1cccc(NS(=O)(=O)c2cc(C(=O)N3CCCCCC3)ccc2C)c1 | – | inconclusive: -30.1% |
| Cc1ccnc(NCn2nnc3ccccc32)c1 | – | inconclusive: 7.62% |
| O=C(CSc1nnc(-c2ccccc2)o1)OCc1ccccc1 | – | inconclusive: 38.5% |
| O=C(CCS(=O)(=O)c1ccc(Cl)cc1)Nc1ccc(F)cc1 | – | inconclusive: -40.6% |
| CCOc1cccc2cc(C(=O)NCc3ccccc3)c(=N)oc12 | – | inconclusive: 18.7% |
| Clc1ccccc1CN1CCN(/N=C/c2ccncc2)CC1 | inconclusive: 29.1 µM [falling, single point] | – |
| O=c1c2ccccc2nc(-c2ccc(Cl)c(Cl)c2)n1O | inconclusive: 1.46 µM [falling, partial curve] | – |
| CC1CCCCN1CCNC(=O)c1ccc2c(c1)N(Cc1ccccc1F)C(=O)c1ccccc1S2=O (stereo not given) | inconclusive: 0.0326 µM [activator, partial curve, poor fit] | – |
| [N-]=[N+]=NCCN1CCN(CCc2ccccc2)CCC1=O | inconclusive: 29.1 µM [activator, single point] | – |
| Cc1ccc(C(=O)NNC(=O)c2ccccc2OCc2c(C)noc2C)cc1 | – | inconclusive |
| Cc1ccnc(NS(=O)(=O)c2ccc(NS(=O)(=O)c3cc(Cl)ccc3Cl)cc2)n1 | inconclusive: 0.0046 µM [falling, full curve, poor fit] | – |

| Structure (SMILES) | Potency | lipid storage change, negative = inhibition |
| --- | --- | --- |
| Cc1cc(C(=O)N/N=C/C=C/c2ccc([N+](=O)[O-])cc2)n[nH]1 | inconclusive: 10.3 µM [activator, single point] | – |
| COc1ccc(N2C(=O)/C(=C/c3ccc([N+](=O)[O-])cc3)C=C2c2ccccc2)cc1 | inconclusive: 6.51 µM [falling, single point] | – |
| COc1ccc(C(C)(C)C)cc1NC(=O)c1cncc(Br)c1 | – | inconclusive: -26.1% |
| CC(=O)Nc1ccc(NCC(O)COc2ccccc2)cc1 (stereo not given) | inconclusive: 29.1 µM [cytotoxic, single point] | – |
| Cc1cccc(C(=O)NCC(=O)N2CCN(S(=O)(=O)c3ccccc3)CC2)c1 | – | inconclusive |
| Cc1nc2nc(CSc3nnc(C)s3)cc(=O)n2[nH]1 | – | inconclusive: -0.539% |
| O=C(NNC(=O)C1CC(c2cccs2)=NO1)Nc1ccc(Cl)cc1 (stereo not given) | – | inconclusive: 27.3% |
| CC1CCCCC1NC(=O)CN1c2cccc3cccc(c23)S1(=O)=O (stereo not given) | inconclusive: 1.16 µM [falling, full curve, poor fit] | – |
| CCS(=O)(=O)c1ccc2c(c1)N(S(C)(=O)=O)CC(C(=O)NC1CC1)O2 (stereo not given) | – | inconclusive: 3.39% |
| COc1cccc(C(c2nnnn2CS(=O)(=O)c2ccc(C)cc2)N2CCN(C)CC2)c1OC (stereo not given) | inconclusive: 0.0052 µM [falling, full curve, poor fit] | – |
| O=C(Cn1cnc2ccccc21)c1ccccc1 | inconclusive: 13 µM [falling, single point] | – |
| C[C@@]12CCC=C[C@H]1[C@H](c1ccc(F)c(/C=C/c3ccccc3)c1)N(Cc1ccccc1)C2=O | – | inconclusive: 15.7% |
| COc1ccc(CCNC(=S)N2CCN(S(=O)(=O)c3ccccc3)CC2)cc1 | – | inconclusive: 31.7% |
| N#Cc1cc2c(nc1SCc1ccc(Cl)nc1)CCCCC2 | inconclusive: 5.17 µM [activator, single point] | – |
| O=C(CN1CCN(Cc2ccccc2)CC1)N/N=C/C=C/c1ccccc1[N+](=O)[O-] | inconclusive: 0.82 µM [activator, full curve, poor fit] | – |
| O=C(c1cccc(OC2CCN(Cc3ccc(F)cc3)CC2)c1)N1CCCC1 | – | inconclusive: 19.8% |
| O=C(OCCCOC(=O)c1ccccc1O)c1ccccc1O | – | inconclusive: 30.2% [at 0.00295 µM] |
| Cc1cc(NC(=O)NN2CCOCC2)nn1-c1c(Cl)cccc1Cl | – | inconclusive: -13.9% |
| O=C(Cn1cnnn1)NCc1ccccc1 | – | inconclusive: -14.8% |
| COc1ccccc1OCC(=O)NCCC1=CCCCC1 | – | inconclusive: -45.1% |
| Cc1c(C(=O)N/N=C/c2cccnc2)nnn1-c1nonc1N | inconclusive: 20.6 µM [activator, single point] | – |
| Cn1c(=O)c2c(nc(CN3CCN(CCO)CC3)n2CCc2ccccc2)n(C)c1=O | – | inconclusive: 11.9% |
| C/C(=C\C(=O)c1ccccc1)Nc1ccc(Br)c(Cl)c1 | – | inconclusive: 7.63% |
| O=C(N/N=C/c1cccnc1)c1ccc2ccccc2c1O | – | inconclusive: 318% |
| C/C(=N/NC(=O)c1sc(NS(=O)(=O)c2ccccc2)nc1C)c1sc(N)nc1C | – | inconclusive: -44.8% |

Single records, from the list above:
`O=C(c1cccc(OC2CCN(Cc3ccc(F)cc3)CC2)c1)N1CCCC1` is listed as lipid storage change, negative = inhibition: inconclusive: 19.8%
`O=C(OCCCOC(=O)c1ccccc1O)c1ccccc1O` is listed as lipid storage change, negative = inhibition: inconclusive: 30.2% [at 0.00295 µM]
`C/C(=C\C(=O)c1ccccc1)Nc1ccc(Br)c(Cl)c1` is listed as lipid storage change, negative = inhibition: inconclusive: 7.63%
`Cc1nc2nc(CSc3nnc(C)s3)cc(=O)n2[nH]1` is listed as lipid storage change, negative = inhibition: inconclusive: -0.539%
